From the supplement of paper PMC12819154, “High-throughput peptide-centric local stability assay extends protein–ligand identification to membrane proteins, tissues and bacteria” (Nature Structural & Molecular Biology, 2025)
The list shows a part of the results. Most values lie at the level of the controls, where differences are scatter.

Sequences of proteins named here, by UniProt entry; tags and fusion partners are left off. A change or cut given only in a name is not applied to a line headed by its entry.
UniProt P0CG13, whole entry: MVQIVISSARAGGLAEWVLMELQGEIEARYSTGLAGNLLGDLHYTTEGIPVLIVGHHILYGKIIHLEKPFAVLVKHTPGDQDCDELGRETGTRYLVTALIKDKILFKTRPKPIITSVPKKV
UniProt P0DKB5: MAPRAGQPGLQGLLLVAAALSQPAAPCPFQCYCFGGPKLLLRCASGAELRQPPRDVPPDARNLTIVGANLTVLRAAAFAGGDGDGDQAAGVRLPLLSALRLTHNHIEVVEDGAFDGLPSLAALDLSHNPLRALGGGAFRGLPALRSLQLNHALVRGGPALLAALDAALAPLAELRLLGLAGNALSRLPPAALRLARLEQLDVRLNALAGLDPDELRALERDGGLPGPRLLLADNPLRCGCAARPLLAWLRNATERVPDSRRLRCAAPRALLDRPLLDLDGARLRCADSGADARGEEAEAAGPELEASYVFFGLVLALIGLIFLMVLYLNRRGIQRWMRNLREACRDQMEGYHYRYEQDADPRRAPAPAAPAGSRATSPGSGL
UniProt P11908: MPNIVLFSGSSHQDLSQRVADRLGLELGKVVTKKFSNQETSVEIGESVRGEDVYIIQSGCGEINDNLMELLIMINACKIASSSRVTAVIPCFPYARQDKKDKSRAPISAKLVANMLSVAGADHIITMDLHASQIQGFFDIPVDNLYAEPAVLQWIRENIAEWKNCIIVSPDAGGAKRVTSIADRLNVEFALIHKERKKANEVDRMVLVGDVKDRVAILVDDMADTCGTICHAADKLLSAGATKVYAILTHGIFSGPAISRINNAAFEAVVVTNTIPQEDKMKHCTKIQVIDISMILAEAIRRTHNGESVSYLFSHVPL
UniProt P13378: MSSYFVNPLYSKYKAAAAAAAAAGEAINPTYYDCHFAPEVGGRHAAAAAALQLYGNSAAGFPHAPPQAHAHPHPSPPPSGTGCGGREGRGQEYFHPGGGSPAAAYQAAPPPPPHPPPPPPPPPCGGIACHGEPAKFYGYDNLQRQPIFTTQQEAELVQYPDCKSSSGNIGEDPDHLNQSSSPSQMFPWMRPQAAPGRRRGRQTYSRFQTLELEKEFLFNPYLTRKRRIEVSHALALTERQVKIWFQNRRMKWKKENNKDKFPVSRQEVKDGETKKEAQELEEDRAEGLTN
UniProt P12755: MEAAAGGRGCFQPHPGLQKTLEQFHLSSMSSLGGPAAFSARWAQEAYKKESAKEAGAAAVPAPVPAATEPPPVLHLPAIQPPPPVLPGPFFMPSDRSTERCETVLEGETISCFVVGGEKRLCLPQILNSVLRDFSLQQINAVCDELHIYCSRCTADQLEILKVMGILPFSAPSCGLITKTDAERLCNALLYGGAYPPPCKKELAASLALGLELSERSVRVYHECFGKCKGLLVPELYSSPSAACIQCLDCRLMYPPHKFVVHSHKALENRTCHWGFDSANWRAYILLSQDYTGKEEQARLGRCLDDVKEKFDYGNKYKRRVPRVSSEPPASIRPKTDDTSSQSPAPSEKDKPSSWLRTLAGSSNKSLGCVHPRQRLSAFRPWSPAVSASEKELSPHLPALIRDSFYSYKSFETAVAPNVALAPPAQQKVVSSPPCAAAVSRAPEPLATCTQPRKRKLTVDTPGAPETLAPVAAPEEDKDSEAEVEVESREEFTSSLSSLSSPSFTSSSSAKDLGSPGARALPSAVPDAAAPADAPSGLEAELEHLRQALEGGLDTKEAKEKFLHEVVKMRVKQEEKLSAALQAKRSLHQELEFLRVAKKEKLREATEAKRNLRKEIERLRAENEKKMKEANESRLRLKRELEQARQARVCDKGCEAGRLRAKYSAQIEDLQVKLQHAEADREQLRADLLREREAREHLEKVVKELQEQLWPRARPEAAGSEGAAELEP
UniProt P08575: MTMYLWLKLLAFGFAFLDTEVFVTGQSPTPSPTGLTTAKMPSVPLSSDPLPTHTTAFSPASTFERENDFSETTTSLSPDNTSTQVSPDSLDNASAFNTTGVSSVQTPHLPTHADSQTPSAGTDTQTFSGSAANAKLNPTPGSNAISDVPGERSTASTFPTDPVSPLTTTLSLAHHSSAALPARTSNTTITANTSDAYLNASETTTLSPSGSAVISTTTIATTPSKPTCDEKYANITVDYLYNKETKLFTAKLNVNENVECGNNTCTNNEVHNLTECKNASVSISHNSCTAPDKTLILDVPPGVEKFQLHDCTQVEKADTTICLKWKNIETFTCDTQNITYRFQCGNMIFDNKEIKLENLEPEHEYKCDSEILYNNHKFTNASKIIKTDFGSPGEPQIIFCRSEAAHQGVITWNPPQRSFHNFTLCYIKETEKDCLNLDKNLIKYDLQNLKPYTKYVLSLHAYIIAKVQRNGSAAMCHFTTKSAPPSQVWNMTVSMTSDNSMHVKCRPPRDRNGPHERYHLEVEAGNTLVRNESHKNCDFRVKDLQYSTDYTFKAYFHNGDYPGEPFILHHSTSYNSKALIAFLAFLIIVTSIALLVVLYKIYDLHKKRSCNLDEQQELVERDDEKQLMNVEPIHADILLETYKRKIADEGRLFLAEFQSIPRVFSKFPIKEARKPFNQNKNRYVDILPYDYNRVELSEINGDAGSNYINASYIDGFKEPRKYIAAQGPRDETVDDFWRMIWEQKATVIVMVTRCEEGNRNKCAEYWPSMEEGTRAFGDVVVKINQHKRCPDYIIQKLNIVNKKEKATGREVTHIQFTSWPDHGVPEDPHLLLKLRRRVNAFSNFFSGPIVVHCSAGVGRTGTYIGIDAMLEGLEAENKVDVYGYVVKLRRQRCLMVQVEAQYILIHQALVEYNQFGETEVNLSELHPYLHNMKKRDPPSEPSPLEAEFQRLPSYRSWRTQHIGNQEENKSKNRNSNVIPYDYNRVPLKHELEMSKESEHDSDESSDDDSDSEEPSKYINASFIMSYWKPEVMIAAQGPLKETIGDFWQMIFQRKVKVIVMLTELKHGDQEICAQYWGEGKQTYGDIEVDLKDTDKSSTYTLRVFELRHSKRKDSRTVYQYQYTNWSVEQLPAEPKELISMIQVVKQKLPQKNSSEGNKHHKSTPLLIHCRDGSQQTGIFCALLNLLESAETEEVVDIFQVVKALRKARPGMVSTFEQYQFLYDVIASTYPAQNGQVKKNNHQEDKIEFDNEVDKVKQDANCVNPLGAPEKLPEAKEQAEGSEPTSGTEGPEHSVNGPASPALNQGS
UniProt P07738: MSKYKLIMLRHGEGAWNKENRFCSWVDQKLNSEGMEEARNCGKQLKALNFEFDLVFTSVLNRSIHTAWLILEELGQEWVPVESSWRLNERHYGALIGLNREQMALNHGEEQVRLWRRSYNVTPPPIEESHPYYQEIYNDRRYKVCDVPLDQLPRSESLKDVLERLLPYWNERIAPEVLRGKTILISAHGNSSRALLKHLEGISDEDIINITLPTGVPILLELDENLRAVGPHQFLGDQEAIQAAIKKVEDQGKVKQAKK
UniProt P11498: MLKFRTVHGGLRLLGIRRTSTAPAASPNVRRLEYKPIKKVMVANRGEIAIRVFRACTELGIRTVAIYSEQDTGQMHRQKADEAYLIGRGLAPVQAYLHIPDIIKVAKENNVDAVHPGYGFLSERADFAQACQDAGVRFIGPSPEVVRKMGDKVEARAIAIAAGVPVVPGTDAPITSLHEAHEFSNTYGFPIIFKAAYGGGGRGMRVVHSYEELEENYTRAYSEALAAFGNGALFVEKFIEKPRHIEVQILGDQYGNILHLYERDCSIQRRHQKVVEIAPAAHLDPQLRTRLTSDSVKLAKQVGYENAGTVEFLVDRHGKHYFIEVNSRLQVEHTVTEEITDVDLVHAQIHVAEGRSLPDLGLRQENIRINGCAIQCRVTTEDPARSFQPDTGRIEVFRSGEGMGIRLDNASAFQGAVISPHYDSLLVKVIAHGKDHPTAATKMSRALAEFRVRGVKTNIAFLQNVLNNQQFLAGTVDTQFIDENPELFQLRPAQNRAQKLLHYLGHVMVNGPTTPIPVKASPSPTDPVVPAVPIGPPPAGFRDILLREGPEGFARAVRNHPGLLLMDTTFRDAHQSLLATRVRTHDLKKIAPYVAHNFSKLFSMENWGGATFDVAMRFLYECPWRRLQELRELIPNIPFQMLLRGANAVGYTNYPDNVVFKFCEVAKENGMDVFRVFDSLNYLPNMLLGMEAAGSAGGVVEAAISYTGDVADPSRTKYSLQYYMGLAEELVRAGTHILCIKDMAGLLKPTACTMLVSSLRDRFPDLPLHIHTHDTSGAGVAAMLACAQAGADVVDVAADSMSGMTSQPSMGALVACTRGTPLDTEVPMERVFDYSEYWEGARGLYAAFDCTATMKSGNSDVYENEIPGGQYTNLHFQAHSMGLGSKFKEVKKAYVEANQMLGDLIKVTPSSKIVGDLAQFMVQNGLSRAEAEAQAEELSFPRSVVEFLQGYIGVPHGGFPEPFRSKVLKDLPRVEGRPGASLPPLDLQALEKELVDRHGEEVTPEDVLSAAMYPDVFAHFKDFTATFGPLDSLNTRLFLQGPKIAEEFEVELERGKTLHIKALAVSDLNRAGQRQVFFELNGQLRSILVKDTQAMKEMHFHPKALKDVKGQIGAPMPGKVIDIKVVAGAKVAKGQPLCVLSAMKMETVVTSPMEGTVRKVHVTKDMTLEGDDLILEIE
UniProt P01031, whole entry: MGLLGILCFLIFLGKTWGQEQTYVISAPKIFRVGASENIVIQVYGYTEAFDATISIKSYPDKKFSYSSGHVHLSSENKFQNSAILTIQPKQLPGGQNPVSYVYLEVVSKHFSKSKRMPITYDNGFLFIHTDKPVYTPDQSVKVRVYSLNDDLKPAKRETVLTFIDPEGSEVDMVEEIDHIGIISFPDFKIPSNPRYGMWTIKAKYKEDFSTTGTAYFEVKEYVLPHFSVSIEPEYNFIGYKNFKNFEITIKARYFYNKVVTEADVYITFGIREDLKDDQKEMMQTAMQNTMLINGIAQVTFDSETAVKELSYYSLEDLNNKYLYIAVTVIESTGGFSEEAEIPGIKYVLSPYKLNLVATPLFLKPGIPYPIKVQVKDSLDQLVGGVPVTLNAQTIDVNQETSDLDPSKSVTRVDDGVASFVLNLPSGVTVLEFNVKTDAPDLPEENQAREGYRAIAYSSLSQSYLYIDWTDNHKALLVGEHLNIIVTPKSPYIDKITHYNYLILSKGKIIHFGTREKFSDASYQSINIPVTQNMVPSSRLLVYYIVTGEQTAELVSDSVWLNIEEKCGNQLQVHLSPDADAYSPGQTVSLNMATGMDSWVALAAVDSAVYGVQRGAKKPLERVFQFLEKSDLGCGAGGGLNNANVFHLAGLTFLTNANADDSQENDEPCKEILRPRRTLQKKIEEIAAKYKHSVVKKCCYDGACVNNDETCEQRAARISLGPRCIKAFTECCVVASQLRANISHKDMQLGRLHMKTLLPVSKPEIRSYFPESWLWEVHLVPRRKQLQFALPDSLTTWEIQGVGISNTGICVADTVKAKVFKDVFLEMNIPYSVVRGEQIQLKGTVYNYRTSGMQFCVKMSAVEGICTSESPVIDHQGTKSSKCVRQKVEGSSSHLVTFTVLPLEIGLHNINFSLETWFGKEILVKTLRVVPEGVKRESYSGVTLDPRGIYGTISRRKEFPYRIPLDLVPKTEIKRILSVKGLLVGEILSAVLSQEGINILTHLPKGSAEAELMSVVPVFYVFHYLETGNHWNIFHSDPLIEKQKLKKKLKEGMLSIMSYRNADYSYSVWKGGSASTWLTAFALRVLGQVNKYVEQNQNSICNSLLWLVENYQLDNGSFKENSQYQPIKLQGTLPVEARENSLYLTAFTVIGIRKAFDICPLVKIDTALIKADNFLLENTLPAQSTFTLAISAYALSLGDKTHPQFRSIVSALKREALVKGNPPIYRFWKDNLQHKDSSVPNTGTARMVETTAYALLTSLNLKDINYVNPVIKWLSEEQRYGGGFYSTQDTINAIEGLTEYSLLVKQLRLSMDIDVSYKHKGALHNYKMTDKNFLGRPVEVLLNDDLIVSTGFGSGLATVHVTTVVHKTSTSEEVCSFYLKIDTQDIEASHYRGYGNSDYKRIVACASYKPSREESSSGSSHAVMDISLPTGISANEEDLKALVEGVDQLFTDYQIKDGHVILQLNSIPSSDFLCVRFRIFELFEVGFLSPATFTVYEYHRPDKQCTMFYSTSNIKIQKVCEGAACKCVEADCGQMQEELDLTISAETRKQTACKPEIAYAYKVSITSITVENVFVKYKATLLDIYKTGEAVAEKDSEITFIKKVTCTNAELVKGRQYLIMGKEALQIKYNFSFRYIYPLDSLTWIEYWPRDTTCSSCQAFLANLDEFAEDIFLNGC

Each target was assayed with CN[C@@H]1C[C@H]2O[C@@](C)([C@@H]1OC)n1c3ccccc3c3c4c(c5c6ccccc6n2c5c31)C(=O)NC4 [staurosporine] (assay: log2 fold change of tryptic peptide abundance, ligand vs vehicle (limited proteolysis) (log2 ratio); higher = more trypsin-susceptible (destabilized)). Conditions: ligand concentration: 20 uM; sample: K562 cleared lysate; digestion: 4 min, 22 C (HT-PELSA RT4min, Orbitrap Astral).
In the case of “UniProt P0CG13 (peptide sequence: TRPKPIITSVPK, peptide start residue: 108)”, the log2 fold change is reported as 0.261.
“UniProt P0DKB5 (peptide sequence: LEQLDVR, peptide start residue: 197)” was tested, and the log2 fold change was -0.0351.
In the case of “PRPS2 (peptide sequence: PNIVLFSGSSHQDLSQR, peptide start residue: 2) (UniProt P11908)”, the log2 fold change is reported as -0.102.
“UniProt P13378 (peptide sequence: EFLFNPYLTR, peptide start residue: 164)” was tested, and the log2 fold change was -0.501.
Target “SKI (peptide sequence: RSLHQELEFLR, peptide start residue: 585) (UniProt P12755)” has a log2 fold change of 0.87.
For “PTPRC (peptide sequence: NNHQEDKIEFDNEVDKVK, peptide start residue: 1239) (UniProt P08575)”, the log2 fold change was -0.413.
In the case of “BPGM (peptide sequence: KVEDQGKVK, peptide start residue: 247) (UniProt P07738)”, the log2 fold change is reported as -0.425.
In the case of “UniProt P11137 (peptide sequence: IDLSHVTSK, peptide start residue: 1699)”, the log2 fold change is reported as -0.213.
“PC (peptide sequence: VAKENNVDAVHPGYGFLSER, peptide start residue: 105) (UniProt P11498)” was tested, and the log2 fold change was -0.238.
For “C5 (peptide sequence: GAKKPLER, peptide start residue: 615) (UniProt P01031)”, the log2 fold change was -0.0186.
